Screen size: about 130,000 compounds; about 1,000 (0.77%) were called active. This list was built around the results that the source calls inconclusive (neither active nor inactive); the mix of calls is not that of the screen.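 Rule for the calls: active = activation at 2 µM above a set limit, confirmed on inspection of the cell images; inconclusive = above the set limit but not confirmed on image inspection; inactive = the rest.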
Test: activators of insulin promoter-driven GFP, primary screen, imaging, TRM-6 cells, eGFP reporter, cell count (AID 1296);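 note: share of cells whose green reporter signal exceeds an intensity cutoff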
Settings: at 2 µM, stronger effect = higher value, plate-scaled: unstimulated 0, stimulated control 100
Procedure, shortened: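 System: human fetal islet-derived TRM-6 cells with tamoxifen-inducible insulin promoter–eGFP reporter; input: seeding density of 1,000 cells per well; buffer or medium: Low-glucose (5.5 mM) medium with tamoxifen; incubation: compound exposure 48 h, 37 °C; measured by: high-content imaging of fixed cells with Hoechst nuclear stain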

SMILES	activation
COc1ccc(-n2nc(C(=O)Nc3ccc(OC)c(OC)c3)c3c4ccccc4n(C)c3c2=O)cc1	inconclusive: 513%
Cc1ccc(S(=O)(=O)N(C)CC(=O)N2CCCC2)cc1	inactive: 267%
O=C(OCN1C(=O)c2ccccc2C1=O)c1cccs1	inconclusive: 223%
Cc1noc(C)c1CSc1nc2ccccc2s1	inactive: 3.12%
Clc1ccc(OCCN2CCOCC2)cc1Cl	inconclusive: 429%
O=C(NCCCn1ccnc1)Nc1cccc2ccccc12	inconclusive: 460%
O=C1c2cccnc2Oc2ccc(Cl)cc2N1Cc1ccc(F)cc1	inactive: 9.38%
O=C(Nc1c(C(=O)N2CCOCC2)cnn1-c1ccccc1Cl)c1ccco1	inconclusive: 400%
COc1ccccc1N/C=C/c1onc(C)c1[N+](=O)[O-]	inconclusive: 256%
Cn1c(=O)c2cc(S(=O)(=O)NCCC(=O)NCc3ccccc3Cl)ccc2n(C)c1=O	inconclusive: 127%
Cc1ccnc2nc(C(=O)OCCOc3ccc(F)cc3)nn12	inactive: 133%
Clc1ccc2c(c1)C(N1CCNCC1)Cc1ccccc1S2 (stereo unspecified)	active: 507%
Cc1ccc(O)c(-n2nc3ccccc3n2)c1	inconclusive: 221%
CCS(=O)(=O)c1ccc2oc(SCC(=O)N3c4ccccc4CC3C)nc2c1 (stereo unspecified)	active: 457%
N#C/C(=C/c1ccc(N2CCOCC2)o1)c1nc2ccccc2[nH]1	inconclusive: 567%
COCCNC(=O)C(=O)NNC(=O)c1ccccc1OC	inactive: 8.33%
O=C(NCC1CCCO1)c1onc(CSc2ccc(F)c(F)c2)c1C(=O)O (stereo unspecified)	inactive: 2.7%
CC1CCN(C(=O)CSCc2ccc(Cl)cc2)CC1	inactive: 138%
CCNCc1ccccc1OCc1ccccc1	inactive: 0%
Cc1cc(NC(=O)c2ccc([N+](=O)[O-])o2)ccc1NC(=O)c1ccco1	inconclusive: 157% [cytotoxic]
CCc1ccccc1N(CC(=O)NCc1ccco1)C(=O)c1snc(C(N)=O)c1N	active: 164%
Cc1cccc(OCCCn2c(=O)sc3ccccc32)c1	inconclusive: 82.9%
COc1ccc(C(=O)Nc2ccc(N3CCCC3)cc2)cc1	inconclusive: 197%

SMILES	activation
COc1cc(/C=N/Nc2nc(Nc3ccccc3)nc(N3CCOCC3)n2)ccc1OC(=O)c1ccco1	inconclusive: 378% [cytotoxic]
CC(C)CNC(=O)c1cccc(NC(=O)C2CCCO2)c1 (stereo unspecified)	active: 438%
O=C(OCCN1C(=O)c2cccc3c(N4CCOCC4)ccc(c23)C1=O)c1cc(Cl)cc(Cl)c1	active: 204%
CC(=O)N(\C=C/C=C/C=C1\Sc2ccccc2C1=O)c1ccccc1	inconclusive: 124%
O=C(C(=O)N1CCCc2ccccc21)c1c[nH]c2ccccc12	inconclusive: 212% [cytotoxic]
CC(=O)O[C@H]1C2OC(=O)C(C)=C2[C@@H]2OC(=O)[C@]3(CCC4OC41C)OC23 (stereo partly specified)	inactive: -4.76%
O=C(CN1C(=O)S/C(=C/C=C/c2ccccc2)C1=O)Nc1ccc(C(=O)O)cc1	active: 550%
COC(=O)c1cn(-c2ccccc2)c(C)c1C(=O)OC	active: 592%
Nc1nc(N2CCN(Cc3ccccc3)CC2)n[nH]1	inactive: -2.86%
Clc1ccc(OCCn2cnc3ccccc32)c(Cl)c1	inconclusive: 460%
CCCSc1nnc(CN2CCOCC2)n1C	active: 419%
CCOC(=O)c1sc2nc(N3CCOCC3)c3c(c2c1N)CCN(C)C3	active: 500%
COC(=O)c1sc2cc([N+](=O)[O-])cc(SCC(C)C)c2c1N	active: 590%
Cc1ccc(Oc2ncccc2/C=N/OCc2ccc(Cl)c(Cl)c2)cc1	inactive: -3.45%
CCOC(=O)c1cc(C)n(CCCN2CCOCC2)c1C	active: 86.2%
CC1=CC(=C(C#N)C#N)C=C(C)N1CCN1CCN(C(=O)Nc2ccc(Cl)c(Cl)c2)CC1	inconclusive: 473% [cytotoxic]
COCCn1nnnc1CN1C2CCCC1CC(NC(C)=O)C2 (stereo unspecified)	inconclusive: 550%
OC1(C#CCCN2CCCCC2)c2ccccc2-c2ccccc21	inconclusive: 173%
COc1cc(C(=O)NCc2nnc(SCC(=O)Nc3nc4ccccc4s3)o2)cc(OC)c1OC	inactive: 3.7%
O=C(NCCC1=CCCCC1)c1cnccn1	inconclusive: 453%
CCOc1cccc(/C(O)=C2/C(=O)C(=O)N(CCN3CCOCC3)C2c2cccnc2)c1 (stereo unspecified)	inconclusive: 592%
Cc1cccn2c(=O)c(/C=C(\C#N)S(=O)(=O)c3ccccc3)c(Oc3ccc(Cl)cc3)nc12	inconclusive: 308%
Cn1c(C(=O)O)c(CC(=O)Nc2ccc(F)cc2F)c2ccccc21	inconclusive: 470%

SMILES	activation
Cc1nc(SCC(=O)c2cc3ccccc3oc2=O)c(C#N)c(-c2cccs2)c1C(=O)Nc1ccccc1	inconclusive: 400% [cytotoxic]
O=C(C[n+]1cccc2ccccc21)c1ccc([N+](=O)[O-])cc1	inconclusive: 200%
O=C1C(=Cc2ccc(Br)o2)C(=O)c2ccccc21	inconclusive: 206%
CCOc1ccc(Cl)cc1S(=O)(=O)n1nnc2ccccc21	inactive: 169%
Cc1nc(N2CCOCC2)c(C#N)c2c1COC(C)(C)C2	inconclusive: 418%
O=c1cc(O)nc(SCc2ccccc2)[nH]1	active: 525%
Cc1cc(NS(=O)(=O)c2ccc(NC(=O)CCCOc3ccc(Cl)cc3)cc2)no1	active: 127%
O=[N+]1C2=C(CCCC2)N([O-])C12CCCC2	inconclusive: 136%
O=C1C=CC(=O)N1c1ccc(N2CCCCC2)cc1	inconclusive: 253% [cytotoxic]
CCOc1ccccc1N1CCN(C(=S)NCc2ccccc2)CC1	inconclusive: 171%
Cc1ccc2oc(=O)c3cnn(CC(=O)N(CCCN4CCOCC4)Cc4ccco4)c3c2c1	inconclusive: 150%
CCC(c1nnnn1Cc1ccco1)N(CCc1ccccc1)Cc1cc2ccc(OC)cc2[nH]c1=O (stereo unspecified)	inconclusive: 133%
CC(C)(C)C1C/C(=C/c2ccccn2)C(=O)/C(=C/c2ccccn2)C1 (stereo unspecified)	inconclusive: 567% [cytotoxic]
O=C1CCc2cc(S(=O)(=O)NC(Cc3ccccc3)C(=O)N3CCN(c4ccccn4)CC3)ccc2N1 (stereo unspecified)	inactive: -7.14%
CC(C)Oc1ccc(C(=O)Nc2ccc(Cl)c(S(=O)(=O)Nc3ccc(Cl)cc3)c2)cc1	inactive: -6.67%
CC(=O)Oc1ccc(Cl)cc1/C=C/c1cc(OC(C)=O)c2ccccc2n1	inconclusive: 340%
Cn1ccc(C(=O)OCC(=O)Nc2cccc3ccccc23)n1	inactive: -6.67%
CCNC(=S)Nc1cc(Cl)ccc1Oc1ccccc1	inactive: 0%
CCC(C)OC(=O)C1=C(C)OC23OC(N)=C(C#N)C12C(=O)c1ccccc13 (stereo unspecified)	inactive: 194%
O=C(O)Cc1ccc(C(=O)c2ccc(Cl)cc2)s1	inconclusive: 529%
Cc1ccc(S(=O)(=O)N(C)c2c(C)ccc(S(N)(=O)=O)c2C)cc1	inactive: 0%
CC(C)C(OC(=O)c1ccco1)C(=O)NCc1ccccc1 (stereo unspecified)	inconclusive: 94.4%
Cn1c(CSc2nc3ccccc3s2)nnc1SCC(=O)NCCCN1CCOCC1	inconclusive: 453%

Of the compounds above, these have a COOH group.
SMILES	activation
O=C(NCC1CCCO1)c1onc(CSc2ccc(F)c(F)c2)c1C(=O)O (stereo unspecified)	inactive: 2.7%
O=C(CN1C(=O)S/C(=C/C=C/c2ccccc2)C1=O)Nc1ccc(C(=O)O)cc1	active: 550%
Cn1c(C(=O)O)c(CC(=O)Nc2ccc(F)cc2F)c2ccccc21	inconclusive: 470%
O=C(O)Cc1ccc(C(=O)c2ccc(Cl)cc2)s1	inconclusive: 529%

The listing continues:

SMILES	activation
Cc1cc(OCC(=O)N2CCOCC2)cc2oc(=O)c3ccccc3c12	active: 424%
CCC(=O)NCC(=O)OCC(=O)c1ccccc1	inconclusive: 485%
CCOc1ccccc1NC(=O)Cn1nnc(C(=O)NCc2ccco2)c1N	inconclusive: 192% [cytotoxic]
N#CCCn1cc(/C=C2\NC(=S)N(c3ccccc3)C2=O)c(-c2ccc(-c3ccccc3)cc2)n1	inactive: 5.88%
CN1CCc2c(sc(NC(=O)c3cc4cc([N+](=O)[O-])ccc4s3)c2C(N)=O)C1	inconclusive: 242%
Cc1ccc2cc(CCNC(=O)Cc3cccs3)c(=O)[nH]c2c1	inactive: 202%
CC(C)(C)c1csc(NC(=O)Cn2c(=O)oc3ccccc32)n1	active: 429%
Cc1cc(C)c2c(=O)[nH]c(SCC(=O)NCCc3ccccc3)nc2n1	inconclusive: 469%
S=C(NCCC(c1ccccc1)c1ccccc1)Nc1ccccc1Cl	inconclusive: 158% [cytotoxic]
O=C(COc1ccc(S(=O)(=O)NC2CCCCC2)cc1)NCCC1=CCCCC1	inconclusive: 408%
COc1ccc(NC(=O)C(C)NS(=O)(=O)c2ccccc2)cc1Cl (stereo unspecified)	inconclusive: 83.9%
O=C(Cc1ccc(S(=O)(=O)N2CCCC2)s1)N1CCN(c2ccc(F)cc2)CC1	inconclusive: 218%
O=C1N(Cc2cccc(Cl)c2)C[C@@H]2C[C@@H](c3ccco3)N3CCC[C@@]123	active: 683%
O=C(Cc1ccccc1)N/N=C/c1cc2c(cc1Cl)OCO2	inconclusive: 329%
Cc1ccccc1CSc1nnc(-c2cccs2)n1Cc1ccco1	inconclusive: 149%
Cc1ccc(C)n1-n1cnc2sc3c(c2c1=O)CCCCC3	inconclusive: 139%
N/C(=N\OC(=O)COc1ccc(Cl)cc1)c1cccnc1	inconclusive: 329%
CC(C)CC(NC(=O)c1ccccc1NC(=O)c1ccccc1)C(=O)O (stereo unspecified)	inactive: -5.88%
CCCC(C(=O)NC1CCCCC1)N(Cc1ccco1)C(=O)CNS(=O)(=O)c1ccccc1 (stereo unspecified)	active: 77.4%
COc1ccccc1C1C2=C(COC2=O)Nc2cc3c(cc21)OCO3 (stereo unspecified)	inconclusive: 146% [cytotoxic]
CCN(CC)c1ccc(/C=C2\CCC(/C=C(\C#N)C(=O)Nc3ccccc3F)=C2N2CCOCC2)cc1	inconclusive: 567%
CCC(CC)c1nnc(NC(=O)c2c(C)nn(Cc3ccccc3Cl)c2C)s1	inactive: -2.56%

No new results follow: entries from further up.
SMILES	activation
CN1CCc2c(sc(NC(=O)c3cc4cc([N+](=O)[O-])ccc4s3)c2C(N)=O)C1	inconclusive: 242%
Cc1ccc2cc(CCNC(=O)Cc3cccs3)c(=O)[nH]c2c1	inactive: 202%
